Source: PMC10889306, “ApoE Isoforms Inhibit Amyloid Aggregation of Proinflammatory Protein S100A9” (International Journal of Molecular Sciences, 2024)
No constants are given. Whether binding was seen depends on the method and setting. Some entries that bind do so weakly or less than the wild type.

Sequences of proteins named here, by UniProt entry; tags and fusion partners are left off. A change or cut given only in a name is not applied to a line headed by its entry. A line that says so, or that is headed by a name, gives the form on record, which may keep a tag or linker. Residues count along the entry.
ApoE3-DOPC (lipidated ApoE3) (P02649, residues 19-317): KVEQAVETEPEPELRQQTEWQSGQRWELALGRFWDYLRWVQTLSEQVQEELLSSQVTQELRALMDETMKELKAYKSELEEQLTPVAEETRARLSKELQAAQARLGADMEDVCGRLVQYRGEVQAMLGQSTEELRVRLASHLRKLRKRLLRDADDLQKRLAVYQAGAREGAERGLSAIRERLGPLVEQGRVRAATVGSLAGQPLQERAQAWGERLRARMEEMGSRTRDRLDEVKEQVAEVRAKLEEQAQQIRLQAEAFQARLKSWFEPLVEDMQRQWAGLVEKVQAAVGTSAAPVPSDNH
ApoE4-DOPC (lipidated ApoE4) (P02649, form named): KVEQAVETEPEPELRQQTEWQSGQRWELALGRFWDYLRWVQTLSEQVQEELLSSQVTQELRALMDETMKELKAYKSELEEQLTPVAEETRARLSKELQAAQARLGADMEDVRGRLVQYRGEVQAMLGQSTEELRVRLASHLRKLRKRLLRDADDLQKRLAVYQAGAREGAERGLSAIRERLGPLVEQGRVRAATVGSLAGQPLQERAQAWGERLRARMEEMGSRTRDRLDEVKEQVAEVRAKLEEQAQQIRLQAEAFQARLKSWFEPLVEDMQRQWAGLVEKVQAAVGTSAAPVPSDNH

Columns and labels:
[1] = target: T1, ApoE4 (lipid-free) (human, UniProt P02649 19-317, Cys112 to Arg112); experiment: SDS-stable complex by Western blot of pellet and SEC fractions; 100 uM S100A9 with 5 uM lipid-free ApoE4, PBS, 42 C, 70 h (methods: 72 h); centrifuged 14,000 rpm 15 min; pellet and Superdex 200 peaks of the supernatant on SDS-PAGE and Western blot with anti-S100A9 polyclonal antibodies (Santa Cruz); both purified
T1 construct: Apolipoprotein E, isoform ApoE4 (Arg112/Arg158), human; printed as a 299-residue lipoprotein; the methods call the ApoE isoforms full-length; Natural allele APOE e4; differs from ApoE3 only at position 112; also called Apolipoprotein E4; lipid-free ApoE4; source: bought: AlexoTech AB (recombinant), then size-exclusion chromatography (Superdex 200)

[2] = target: T2, ApoE4-DOPC (lipidated ApoE4) (human, UniProt P02649 19-317, Cys112 to Arg112); experiment: cross-linking; native proteins, 4 uM S100A9 and 4 uM ApoE isoform (1:1), preincubated at 4 C overnight; glutaraldehyde at 10- and 100-fold molar excess, 30 min at 4 C, quenched with Tris; SDS-PAGE and Western blot with anti-S100A9 polyclonal antibodies; both purified
T2 construct: Apolipoprotein E, isoform ApoE4 (Arg112/Arg158), human; printed as a 299-residue lipoprotein; 'Lipidated full-length ApoE isoforms'; source: bought: AlexoTech AB (recombinant)

[3] = target: T3, ApoE3-DOPC (lipidated ApoE3) (human, UniProt P02649 19-317); experiment: as above
T3 construct: Apolipoprotein E, isoform ApoE3 (Cys112/Arg158), human; printed as a 299-residue lipoprotein; 'Lipidated full-length ApoE isoforms'; also called DOPC-ApoE3; source: bought: AlexoTech AB (recombinant)

B1: S100A9 (natural protein)
chain: KMSQLERNIETIINTFHQYSVKLGHPDTLNQGEFKELVRKDLQNFLKKENKNEKVIEHIMEDLDTNADKQLSFEEFIMLMARLTWASHEKMHEGDEGPGHHHKPGLGEGTP
notes: 13 kDa monomer on the gels; PDB 5I8N (S100A9 dimer, NMR) was used for the modelling only; also called native S100A9; S100A9 amyloids; source: Escherichia coli, purified as described previously [57]; Superdex 200 gel filtration for the cross-linking
B1 was tested, and the binding [1] was “binds”, the binding [2] was “binds weakly” and the binding [3] was “binds weakly”.
